PubChem BioAssay AID1671195 – Yale University – 2021
This is a random part of about 22,000 reagents. Of all reagents, about 1,510 (6.9%) got an active call. 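Active includes knockdowns raising or lowering LDL uptake; positive z-scores mean more uptake, negative mean less.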

Aim: 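Knockdowns that increase or decrease uptake of fluorescent LDL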 (primary screen)
Cells: human Huh7 hepatoma cells
Reagent: siRNA pool against human genes, 18 nM
Duration: about 2 to 2.5 days of knockdown, then 8 h LDL uptake
Challenge: DiI-labelled LDL at 30 µg/ml for 8 h, in lipoprotein-deficient serum medium
Measured: 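Fluorescent LDL signal imaged in cells, scaled to the plate median, robust z-score for each replicate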
Direction: robust z-score: higher = more LDL uptake after knockdown
Hit rule: 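a gene counts as active if at least two replicate z-scores exceed ±2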

Knock-down of CHAC1 came out at: robust z-score, replicate 1 = 0.709; robust z-score, replicate 2 = 0.443; robust z-score, replicate 3 = 1.61; inactive.
With knock-down of CRB1 the results were robust z-score, replicate 1 = 0.751; robust z-score, replicate 2 = 1.48; robust z-score, replicate 3 = 0.645; inactive.
For ZNF24, the values are robust z-score, replicate 1 = 0.639; robust z-score, replicate 2 = 1.06; robust z-score, replicate 3 = 0.868; inactive.
Depletion of LOC387943 (retired record) came out at: robust z-score, replicate 1 = 0.614; robust z-score, replicate 2 = 0.439; robust z-score, replicate 3 = 0.812; inactive.
For OR4N5, the entry reads robust z-score, replicate 1 = -0.584; robust z-score, replicate 2 = -1.15; robust z-score, replicate 3 = -1.01; inactive.
Against NCF1C the deposit lists robust z-score, replicate 1 = -0.785; robust z-score, replicate 2 = -1.31; robust z-score, replicate 3 = -1.07; inactive.
Knock-down of KCTD9 came out at: robust z-score, replicate 1 = -0.832; robust z-score, replicate 2 = -0.988; robust z-score, replicate 3 = -0.323; inactive.
After knock-down of TMCC2, the screen gave robust z-score, replicate 1 = 0.272; robust z-score, replicate 2 = 0.694; robust z-score, replicate 3 = 0.328; inactive.
Against LRRC20, the entry reads robust z-score, replicate 1 = 0.279; robust z-score, replicate 2 = 0.65; robust z-score, replicate 3 = 0.767; inactive.
Depletion of NMT1 resulted in: robust z-score, replicate 1 = 0.263; robust z-score, replicate 2 = 0.545; robust z-score, replicate 3 = 0.517; inactive.
With knock-down of SERPINC1 the results were robust z-score, replicate 1 = -1.1; robust z-score, replicate 2 = -1.02; robust z-score, replicate 3 = 0.861; inactive.
LRP3 showed robust z-score, replicate 1 = 0.344; robust z-score, replicate 2 = 0.415; robust z-score, replicate 3 = 0.323; inactive.
For LOC440720 (retired record) the deposit lists robust z-score, replicate 1 = 1.55; robust z-score, replicate 2 = 2.45; robust z-score, replicate 3 = 2.11; active.
Depletion of LOC400920 (retired record) gave: robust z-score, replicate 1 = -0.507; robust z-score, replicate 2 = -0.198; robust z-score, replicate 3 = -0.342; inactive.
With knock-down of FILIP1L, the record shows robust z-score, replicate 1 = 0.866; robust z-score, replicate 2 = -0.332; robust z-score, replicate 3 = 1.2; inactive.

Entries above marked active (1):
LOC440720 (retired record) — robust z-score, replicate 1 = 1.55; robust z-score, replicate 2 = 2.45; robust z-score, replicate 3 = 2.11; outcome = active

The list goes on.
LOC441335 (retired record) showed robust z-score, replicate 1 = -0.752; robust z-score, replicate 2 = -0.971; robust z-score, replicate 3 = -1.06; inactive.
After knock-down of HNRNPA1P60, the screen gave robust z-score, replicate 1 = -1.53; robust z-score, replicate 2 = -1.68; robust z-score, replicate 3 = -0.974; inactive.
Depletion of TARS1 resulted in: robust z-score, replicate 1 = -0.747; robust z-score, replicate 2 = -0.173; robust z-score, replicate 3 = -0.696; inactive.
Against UFSP1, the values are robust z-score, replicate 1 = 0.101; robust z-score, replicate 2 = 1.69; robust z-score, replicate 3 = 0.913; inactive.
Depletion of KLK11 came out at: robust z-score, replicate 1 = 0.0445; robust z-score, replicate 2 = 0.111; robust z-score, replicate 3 = 0.587; inactive.
With knock-down of NMUR2 the results were robust z-score, replicate 1 = 0.614; robust z-score, replicate 2 = 0.952; robust z-score, replicate 3 = 1.33; inactive.
Knock-down of AKAP17A came out at: robust z-score, replicate 1 = -0.572; robust z-score, replicate 2 = -1.2; robust z-score, replicate 3 = -0.288; inactive.
Depletion of CA5A gave: robust z-score, replicate 1 = 1.61; robust z-score, replicate 2 = 1.46; robust z-score, replicate 3 = 1.05; inactive.
PEDS1 showed robust z-score, replicate 1 = 0.629; robust z-score, replicate 2 = 0.33; robust z-score, replicate 3 = 0.397; inactive.
